Experimental data: paper PMC12489390
Results are given in words; binding and its absence hold for the method and conditions named. Binding can be weak; no strength is given. Blank lines part the entries; values can stand above or below the binder they belong to.

Target: ADAMTS17 ancillary domain (17-AD)
Assay: two-hybrid; ULTImate Y2H SCREEN by Hybrigenics Services; bait ADAMTS17-AD (aa 546-1,122) in pB27 (N-LexA-bait-C fusion); Prey Library Human Placenta_RP6; 60 clones processed, 170 million interactions analyzed

- binding: binds
B1: COL6A2, C-terminal portion of the central triple helical domain and N-terminal portion of VWA domain #C1 (domain or fragment, UniProt P12110-1 480-652)
chain: LGEPGKQGSRGDPGDAGPRGDSGQPGPKGDPGRPGFSYPGPRGAPGEKGEPGPRGPEGGRGDFGLKGEPGRKGEKGEPADPGPPGEPGPRGPRGVPGPEGEPGPPGDPGLTECDVMTYVRETCGCCDCEKRCGALDVVFVIDSSESIGYTNFTLEKNFVINVVNRLGAIAKDP

- binding: binds
B2: fibulin-3 (FBLN3) (protein, UniProt Q12805 1-493)
chain: MLKALFLTMLTLALVKSQDTEETITYTQCTDGYEWDPVRQQCKDIDECDIVPDACKGGMKCVNHYGGYLCLPKTAQIIVNNEQPQQETQPAEGTSGATTGVVAASSMATSGVLPGGGFVASAAAVAGPEMQTGRNNFVIRRNPADPQRIPSNPSHRIQCAAGYEQSEHNVCQDIDECTAGTHNCRADQVCINLRGSFACQCPPGYQKRGEQCVDIDECTIPPYCHQRCVNTPGSFYCQCSPGFQLAANNYTCVDINECDASNQCAQQCYNILGSFICQCNQGYELSSDRLNCEDIDECRTSSYLCQYQCVNEPGKFSCMCPQGYQVVRSRTCQDINECETTNECREDEMCWNYHGGFRCYPRNPCQDPYILTPENRCVCPVSNAMCRELPQSIVYKYMSIRSDRSVPSDIFQIQATTIYANTINTFRIKSGNENGEFYLRQTSPVSAMLVLVKSLSGPREHIVDLEMLTVSSIGTFRTSSVLRLTIIVGPFSF
